Measured values: the supplement of paper PMC7666118
This is one part of the list.

By UniProt entry, the sequences of proteins in these tests, tags left out. Where a name states a change or a piece, a line headed by the entry shows the natural chain unless it says otherwise.
UniProt P22033: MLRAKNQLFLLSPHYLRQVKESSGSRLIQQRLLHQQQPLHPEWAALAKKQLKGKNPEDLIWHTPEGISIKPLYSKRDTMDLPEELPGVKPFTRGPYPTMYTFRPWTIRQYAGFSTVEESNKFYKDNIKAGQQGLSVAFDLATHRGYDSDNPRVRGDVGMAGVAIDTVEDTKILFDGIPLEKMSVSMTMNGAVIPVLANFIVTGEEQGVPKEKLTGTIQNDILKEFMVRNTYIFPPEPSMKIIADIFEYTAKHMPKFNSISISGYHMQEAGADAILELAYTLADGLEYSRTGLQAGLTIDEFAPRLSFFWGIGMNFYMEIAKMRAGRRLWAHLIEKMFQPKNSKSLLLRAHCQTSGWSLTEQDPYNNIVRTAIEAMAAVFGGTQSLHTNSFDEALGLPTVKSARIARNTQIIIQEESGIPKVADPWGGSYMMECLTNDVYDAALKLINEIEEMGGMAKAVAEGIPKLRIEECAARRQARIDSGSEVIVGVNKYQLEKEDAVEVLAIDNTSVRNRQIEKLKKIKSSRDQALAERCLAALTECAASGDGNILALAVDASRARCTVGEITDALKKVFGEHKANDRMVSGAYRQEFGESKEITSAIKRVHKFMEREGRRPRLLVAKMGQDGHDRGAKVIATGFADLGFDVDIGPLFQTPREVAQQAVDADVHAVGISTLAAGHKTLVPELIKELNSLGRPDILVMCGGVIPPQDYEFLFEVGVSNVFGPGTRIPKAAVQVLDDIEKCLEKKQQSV
UniProt Q96HR3: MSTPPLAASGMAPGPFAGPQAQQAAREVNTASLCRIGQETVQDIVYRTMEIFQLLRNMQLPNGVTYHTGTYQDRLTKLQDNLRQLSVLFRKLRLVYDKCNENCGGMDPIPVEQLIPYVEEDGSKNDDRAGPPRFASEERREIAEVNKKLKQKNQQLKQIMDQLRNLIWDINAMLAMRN
UniProt O75431: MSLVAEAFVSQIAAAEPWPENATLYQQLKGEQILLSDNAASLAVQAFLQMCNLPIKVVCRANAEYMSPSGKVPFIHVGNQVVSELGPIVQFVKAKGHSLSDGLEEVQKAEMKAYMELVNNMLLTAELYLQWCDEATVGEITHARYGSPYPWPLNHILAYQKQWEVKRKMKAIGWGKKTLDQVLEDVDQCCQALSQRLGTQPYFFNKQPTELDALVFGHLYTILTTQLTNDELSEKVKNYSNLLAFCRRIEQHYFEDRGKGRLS
UniProt O95822: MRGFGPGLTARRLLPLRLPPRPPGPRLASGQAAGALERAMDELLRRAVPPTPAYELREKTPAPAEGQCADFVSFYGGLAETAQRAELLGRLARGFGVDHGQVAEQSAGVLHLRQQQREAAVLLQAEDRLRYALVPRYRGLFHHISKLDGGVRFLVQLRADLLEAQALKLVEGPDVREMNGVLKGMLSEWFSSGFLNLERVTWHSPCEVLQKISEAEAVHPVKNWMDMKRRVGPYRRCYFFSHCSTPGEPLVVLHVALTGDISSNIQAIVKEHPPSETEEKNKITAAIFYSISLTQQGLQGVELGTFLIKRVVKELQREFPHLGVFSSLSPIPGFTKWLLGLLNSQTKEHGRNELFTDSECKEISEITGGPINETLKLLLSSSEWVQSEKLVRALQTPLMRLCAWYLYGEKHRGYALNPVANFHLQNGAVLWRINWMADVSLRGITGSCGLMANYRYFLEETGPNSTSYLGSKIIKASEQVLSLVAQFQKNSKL
UniProt Q9H8S9: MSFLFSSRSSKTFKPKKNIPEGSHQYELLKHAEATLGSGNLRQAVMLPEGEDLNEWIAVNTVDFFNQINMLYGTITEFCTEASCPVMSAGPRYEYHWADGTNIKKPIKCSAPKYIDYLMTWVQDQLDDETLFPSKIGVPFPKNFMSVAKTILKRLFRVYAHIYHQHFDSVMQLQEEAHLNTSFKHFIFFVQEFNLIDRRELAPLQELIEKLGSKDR
UniProt P49914: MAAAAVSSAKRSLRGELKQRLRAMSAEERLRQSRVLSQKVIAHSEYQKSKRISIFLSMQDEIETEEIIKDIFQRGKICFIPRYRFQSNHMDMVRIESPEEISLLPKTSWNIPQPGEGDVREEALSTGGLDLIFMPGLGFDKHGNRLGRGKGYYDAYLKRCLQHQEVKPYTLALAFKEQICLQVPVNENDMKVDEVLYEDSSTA
UniProt Q9Y3A3: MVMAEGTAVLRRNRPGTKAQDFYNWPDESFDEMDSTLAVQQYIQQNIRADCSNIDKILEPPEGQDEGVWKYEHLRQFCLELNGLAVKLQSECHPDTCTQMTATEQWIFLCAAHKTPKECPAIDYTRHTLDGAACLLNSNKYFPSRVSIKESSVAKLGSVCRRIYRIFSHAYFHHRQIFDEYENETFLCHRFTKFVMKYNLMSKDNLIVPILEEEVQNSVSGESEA
UniProt Q15528: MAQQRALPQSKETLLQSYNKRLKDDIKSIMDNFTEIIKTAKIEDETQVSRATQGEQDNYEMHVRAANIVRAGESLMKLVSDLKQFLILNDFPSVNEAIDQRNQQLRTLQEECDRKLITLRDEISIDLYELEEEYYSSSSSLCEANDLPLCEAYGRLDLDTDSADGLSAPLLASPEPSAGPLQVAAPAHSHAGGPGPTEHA
UniProt Q14149: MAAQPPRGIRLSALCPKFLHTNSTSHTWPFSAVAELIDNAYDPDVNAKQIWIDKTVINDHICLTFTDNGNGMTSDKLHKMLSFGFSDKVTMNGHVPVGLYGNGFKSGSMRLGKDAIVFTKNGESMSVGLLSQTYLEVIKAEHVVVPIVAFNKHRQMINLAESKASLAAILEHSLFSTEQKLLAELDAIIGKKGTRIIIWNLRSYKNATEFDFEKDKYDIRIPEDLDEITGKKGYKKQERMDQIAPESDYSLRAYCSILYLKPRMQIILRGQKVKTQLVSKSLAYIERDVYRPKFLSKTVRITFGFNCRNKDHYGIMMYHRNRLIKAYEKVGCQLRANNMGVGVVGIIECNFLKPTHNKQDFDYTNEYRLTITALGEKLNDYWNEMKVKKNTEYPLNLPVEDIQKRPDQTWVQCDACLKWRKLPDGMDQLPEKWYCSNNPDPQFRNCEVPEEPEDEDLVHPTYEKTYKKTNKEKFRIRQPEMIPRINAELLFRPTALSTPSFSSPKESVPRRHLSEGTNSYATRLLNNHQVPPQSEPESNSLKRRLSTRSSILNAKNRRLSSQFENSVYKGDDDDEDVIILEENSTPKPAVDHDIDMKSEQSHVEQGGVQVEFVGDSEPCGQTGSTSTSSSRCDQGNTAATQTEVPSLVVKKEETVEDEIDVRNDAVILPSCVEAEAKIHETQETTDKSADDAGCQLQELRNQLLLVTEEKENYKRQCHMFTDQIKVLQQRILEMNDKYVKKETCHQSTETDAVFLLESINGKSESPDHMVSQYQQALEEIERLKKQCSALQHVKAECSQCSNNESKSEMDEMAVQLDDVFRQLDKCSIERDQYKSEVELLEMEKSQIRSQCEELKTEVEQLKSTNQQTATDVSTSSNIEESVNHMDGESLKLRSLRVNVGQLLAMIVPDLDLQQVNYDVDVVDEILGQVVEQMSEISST
UniProt Q99547: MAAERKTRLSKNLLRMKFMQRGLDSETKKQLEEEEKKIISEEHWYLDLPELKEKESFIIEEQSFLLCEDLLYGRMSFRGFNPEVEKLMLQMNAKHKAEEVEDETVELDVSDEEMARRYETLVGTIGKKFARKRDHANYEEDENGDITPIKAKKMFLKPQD
UniProt Q86UW6: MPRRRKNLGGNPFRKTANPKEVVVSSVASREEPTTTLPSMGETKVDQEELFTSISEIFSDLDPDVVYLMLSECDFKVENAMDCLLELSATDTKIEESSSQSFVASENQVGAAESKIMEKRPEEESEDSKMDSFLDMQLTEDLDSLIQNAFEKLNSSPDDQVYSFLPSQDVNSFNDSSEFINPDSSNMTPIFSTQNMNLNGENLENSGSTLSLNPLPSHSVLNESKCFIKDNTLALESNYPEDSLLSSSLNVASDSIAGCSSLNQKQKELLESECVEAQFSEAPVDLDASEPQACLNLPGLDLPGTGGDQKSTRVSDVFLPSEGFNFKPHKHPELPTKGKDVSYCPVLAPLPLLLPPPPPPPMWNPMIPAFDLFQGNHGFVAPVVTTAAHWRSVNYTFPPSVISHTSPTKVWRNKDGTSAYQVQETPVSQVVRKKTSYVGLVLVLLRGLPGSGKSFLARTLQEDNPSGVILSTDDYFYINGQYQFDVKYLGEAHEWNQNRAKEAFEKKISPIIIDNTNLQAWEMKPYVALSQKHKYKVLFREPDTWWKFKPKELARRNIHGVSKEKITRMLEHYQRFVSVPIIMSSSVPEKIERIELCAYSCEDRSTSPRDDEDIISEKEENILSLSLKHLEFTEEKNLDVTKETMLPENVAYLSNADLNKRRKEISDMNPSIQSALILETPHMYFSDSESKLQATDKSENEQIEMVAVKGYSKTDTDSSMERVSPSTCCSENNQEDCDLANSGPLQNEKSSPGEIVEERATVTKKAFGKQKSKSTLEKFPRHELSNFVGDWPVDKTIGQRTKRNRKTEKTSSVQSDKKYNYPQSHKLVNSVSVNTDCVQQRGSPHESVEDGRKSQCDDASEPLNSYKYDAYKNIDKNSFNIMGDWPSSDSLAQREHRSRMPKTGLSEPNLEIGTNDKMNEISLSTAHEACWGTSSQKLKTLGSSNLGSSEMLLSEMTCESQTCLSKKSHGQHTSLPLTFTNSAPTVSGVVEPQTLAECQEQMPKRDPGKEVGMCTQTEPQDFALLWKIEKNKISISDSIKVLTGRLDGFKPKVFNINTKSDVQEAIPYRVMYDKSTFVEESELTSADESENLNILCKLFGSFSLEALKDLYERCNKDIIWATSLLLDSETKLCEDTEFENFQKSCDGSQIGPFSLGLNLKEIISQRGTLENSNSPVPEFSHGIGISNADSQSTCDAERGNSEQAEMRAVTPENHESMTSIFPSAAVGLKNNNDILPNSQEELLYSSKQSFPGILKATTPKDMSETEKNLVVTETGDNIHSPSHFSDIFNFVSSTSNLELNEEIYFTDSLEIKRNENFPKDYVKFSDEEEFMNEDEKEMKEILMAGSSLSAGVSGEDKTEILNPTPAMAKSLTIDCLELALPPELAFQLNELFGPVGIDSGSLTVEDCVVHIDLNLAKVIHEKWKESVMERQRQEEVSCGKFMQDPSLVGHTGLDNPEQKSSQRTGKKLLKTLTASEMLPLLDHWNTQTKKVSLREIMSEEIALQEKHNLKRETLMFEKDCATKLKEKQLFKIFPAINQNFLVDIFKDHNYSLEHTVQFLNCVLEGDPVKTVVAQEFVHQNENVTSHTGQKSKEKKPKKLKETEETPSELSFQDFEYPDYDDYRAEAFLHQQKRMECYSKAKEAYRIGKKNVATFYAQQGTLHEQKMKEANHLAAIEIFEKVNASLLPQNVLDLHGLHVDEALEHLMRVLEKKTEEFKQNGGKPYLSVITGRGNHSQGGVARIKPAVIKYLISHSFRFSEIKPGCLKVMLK
UniProt P55081: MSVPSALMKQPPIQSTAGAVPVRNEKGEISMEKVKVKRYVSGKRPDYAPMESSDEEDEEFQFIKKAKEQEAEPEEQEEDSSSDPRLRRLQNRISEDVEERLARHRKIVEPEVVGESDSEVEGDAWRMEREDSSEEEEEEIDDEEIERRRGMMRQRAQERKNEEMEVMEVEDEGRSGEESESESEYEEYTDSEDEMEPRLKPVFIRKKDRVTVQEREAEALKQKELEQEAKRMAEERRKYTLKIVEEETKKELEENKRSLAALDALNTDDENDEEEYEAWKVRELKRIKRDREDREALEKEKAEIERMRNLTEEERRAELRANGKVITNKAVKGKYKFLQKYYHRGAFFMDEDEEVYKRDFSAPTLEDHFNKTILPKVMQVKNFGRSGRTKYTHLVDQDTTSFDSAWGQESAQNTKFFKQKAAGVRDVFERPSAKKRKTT
UniProt Q9Y217: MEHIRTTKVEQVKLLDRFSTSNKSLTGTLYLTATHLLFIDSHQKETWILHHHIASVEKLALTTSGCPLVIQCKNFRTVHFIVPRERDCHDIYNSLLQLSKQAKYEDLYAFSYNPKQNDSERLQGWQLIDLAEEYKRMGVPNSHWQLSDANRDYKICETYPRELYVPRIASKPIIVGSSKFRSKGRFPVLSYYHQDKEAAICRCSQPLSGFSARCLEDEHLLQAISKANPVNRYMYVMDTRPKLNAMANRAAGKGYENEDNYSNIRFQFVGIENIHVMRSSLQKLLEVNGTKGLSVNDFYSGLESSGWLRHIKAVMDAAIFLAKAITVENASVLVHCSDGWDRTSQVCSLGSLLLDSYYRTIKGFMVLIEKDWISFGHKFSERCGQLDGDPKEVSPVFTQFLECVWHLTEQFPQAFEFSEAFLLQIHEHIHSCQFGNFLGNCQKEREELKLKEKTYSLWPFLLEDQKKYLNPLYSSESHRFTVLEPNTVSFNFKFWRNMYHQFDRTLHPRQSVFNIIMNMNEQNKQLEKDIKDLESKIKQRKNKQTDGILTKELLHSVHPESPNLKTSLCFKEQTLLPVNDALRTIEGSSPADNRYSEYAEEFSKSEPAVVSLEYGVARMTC

These targets were tested with COc1ccc(Cn2ccc3cc(C)c(C(=O)NO)cc32)cc1 (assay: dose-dependent thermal stabilisation call (2D-TPP, DLPTP, 10% FDR) (binary (1 = stabilised)); higher = stabilised by the compound). Conditions: system: HL-60 intact cells; concentration range 0.04-10 µM.
Description: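 2D thermal proteome profiling in intact HL-60 cells treated with BRD-3811 (0, 0.04, 0.29, 2, 10 uM) for 90 min at 37 C, then heated 3 min at one of 12 temperatures (42-63.9 C). Soluble protein was quantified by TMT10 MS. The value is the DLPTP call of the paper: dose-dependent thermal stabilisation over all temperatures at 10% FDR (F-test of a dose-response against a flat model); one experiment, one call per tested protein.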

| Target | dose-dependent thermal stabilisation call |
| --- | --- |
| MRPS14 (UniProt O60783) | inactive: 0 |
| MRPL50 (UniProt Q8N5N7) | inactive: 0 |
| MUT (UniProt P22033) | inactive: 0 |
| MED30 (UniProt Q96HR3) | inactive: 0 |
| MGAT5 (UniProt Q09328) | inactive: 0 |
| MRPS30 (UniProt Q9NP92) | inactive: 0 |
| MRPL52 (UniProt Q86TS9) | inactive: 0 |
| MTX2 (UniProt O75431) | inactive: 0 |
| MLYCD (UniProt O95822) | inactive: 0 |
| MOBKL1B (UniProt Q9H8S9) | inactive: 0 |
| MRPL1 (UniProt Q9BYD6) | inactive: 0 |
| MEGF9 (UniProt Q9H1U4) | inactive: 0 |
| MED28 (UniProt Q9H204) | inactive: 0 |
| MNT (UniProt Q99583) | inactive: 0 |
| MRPL43 (UniProt Q8N983) | inactive: 0 |
| MTHFS (UniProt P49914) | inactive: 0 |
| MELK (UniProt Q14680) | inactive: 0 |
| MPV17 (UniProt P39210) | inactive: 0 |
| MOBKL3 (UniProt Q9Y3A3) | inactive: 0 |
| NADSYN1 (UniProt Q6IA69) | inactive: 0 |

| Target | dose-dependent thermal stabilisation call |
| --- | --- |
| MED22 (UniProt Q15528) | inactive: 0 |
| MORC3 (UniProt Q14149) | inactive: 0 |
| MYNN (UniProt Q9NPC7) | inactive: 0 |
| MRPL13 (UniProt Q9BYD1) | inactive: 0 |
| NAAA (UniProt Q02083) | inactive: 0 |
| MKL1 (UniProt Q969V6) | inactive: 0 |
| MRPL16 (UniProt Q9NX20) | inactive: 0 |
| MRPS34 (UniProt P82930) | inactive: 0 |
| N-PAC | inactive: 0 |
| MRPS9 (UniProt P82933) | inactive: 0 |
| MPHOSPH6 (UniProt Q99547) | inactive: 0 |
| N4BP2 (UniProt Q86UW6) | inactive: 0 |
| MRPS28 (UniProt Q9Y2Q9) | inactive: 0 |
| MFAP1 (UniProt P55081) | inactive: 0 |
| METTL3 (UniProt Q86U44) | inactive: 0 |
| MKI67IP (UniProt Q9BYG3) | inactive: 0 |
| MTMR6 (UniProt Q9Y217) | inactive: 0 |
| MYH10 (UniProt P35580) | inactive: 0 |
| MTIF3 (UniProt Q9H2K0) | inactive: 0 |
| MRPL55 (UniProt Q7Z7F7) | inactive: 0 |

Taken from above:
In dose-dependent thermal stabilisation call, MRPS28 (UniProt Q9Y2Q9) reads inactive: 0
In dose-dependent thermal stabilisation call, MRPS9 (UniProt P82933) reads inactive: 0
